# The entries are a selection whose mix differs from that of the whole data set. At the low end of the ranking, values are background and their order means little.
# Protein sequences, listed by entry. Tags and fused reporters are not part of them. Lines headed by an entry give the natural chain unless they say otherwise; changes in a name come on top.
# UniProt Q9Y603: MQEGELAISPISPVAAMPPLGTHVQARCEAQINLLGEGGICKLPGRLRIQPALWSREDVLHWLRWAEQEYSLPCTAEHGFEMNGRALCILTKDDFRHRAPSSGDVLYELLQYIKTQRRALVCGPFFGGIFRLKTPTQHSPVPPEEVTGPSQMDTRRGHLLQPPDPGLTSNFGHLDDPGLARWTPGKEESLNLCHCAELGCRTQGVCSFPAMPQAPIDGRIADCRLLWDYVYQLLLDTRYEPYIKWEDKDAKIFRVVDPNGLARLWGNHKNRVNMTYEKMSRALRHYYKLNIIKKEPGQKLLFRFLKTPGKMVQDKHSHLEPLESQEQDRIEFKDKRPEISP
# Target: ETV7 (UniProt Q9Y603)
# Assay: DAPPL (digital affinity profiling via proximity ligation, sequencing)
# Conditions: 10 mM Tris-HCl pH 7.5, 50 mM NaCl, 1 mM DTT, 4% glycerol, room temperature, 30 min; GST-TFs on glutathione beads, 16-mer random dsDNA library, 0.1% …; high values mean tight binding; double strand, one strand shown; scale: fold enrichment (6-mer frequency, TF over GST control)
row,Sequence,binding signal
1,CCGCCG,1.2
2,TGGTCA,0.989
3,TTTAAC,1.07
4,ACGCGG,0.925
5,AACTTT,1.2
6,ACGTCT,1.29
7,AATAGT,1.18
8,TTTGAT,1.28
9,TCAATG,0.98
10,AACTGT,0.931
11,AATGAC,1.29
12,GATTCA,1.09
13,GCCCTC,1.22
14,CTCGAA,1.19
15,CGCCGC,1.11
16,TTCGGT,1.15
17,ATCAAC,1.02
18,ATCGTT,0.974
19,CTTGAA,1.08
20,TATGCT,1.32

# Two successive records from above, for reference:
row,Sequence,binding signal
17,ATCAAC,1.02
18,ATCGTT,0.974

# Further entries.

row,Sequence,binding signal
1,AGTAGC,0.968
2,ACGGCT,1.03
3,TAAACC,1.22
4,TTAGGA,0.898
5,AAACTT,1.22
6,GCCCAA,0.91
7,TATGCC,1.19
8,AACCGG,1.36
9,TGTCCT,1.4
10,CTTTAT,1.31
11,TGAGCT,0.962
12,TAAGCG,0.974
13,TGTCTG,1.02
14,AGTACG,0.889
15,CGCGCC,0.997
16,TGTCCC,1.46
17,CCCCGT,0.89
18,GCCGCT,1.05
19,TCCACG,1.06

# — publication PMC7862700
